Values from PubChem BioAssay AID686937 (Drosophila RNAi Screening Center, 2013)

Aim: 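Genes whose loss weakens secretory pathway function in fly cells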 (primary screen)
Cell system: Drosophila S2 cells expressing secreted horseradish peroxidase
Knock-down reagent: long dsRNA against Drosophila genes
Duration: about 5.5 days (5 days dsRNA, then 12 h reporter induction)
Treatment: reporter expression induced after 5 days of dsRNA, read 12 h later; inducer not stated
Detection: 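After 5 days of dsRNA and 12 h of reporter induction, medium peroxidase read by chemiluminescence and scored as per-plate z-score; higher values mean more reporter released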
Scale: z-score: higher = more reporter secreted into medium
The deposit covers about 23,000 reagents; this is an unselected part of those with a known target gene and a result. 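Reduced-secretion tags in replicate 1 do not always agree with the z-scores; no criterion for assigning the tags was given.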 No sequences are given here. Not stated in the record: the amount of reagent.

predicted target,dsRNA,"z-score, replicate 1","z-score, replicate 2","z-score, replicate 3","z-score, replicate 4","phenotype, replicate 1"
MCTS1,DRSC18393,0.49,0.52,,,
Gr59a,DRSC21550,-0.12,-0.41,,,
CG7194,DRSC10784,0.27,0.47,,,
EMC2B,DRSC15506,-0.12,-1,,,
Pcl,DRSC07503,-0.73,-1.29,,,
eIF4E3,DRSC10952,0.24,0.13,,,
Blos1,DRSC05970,0.3,0.35,,,
CG17168,DRSC20904,-3.34,-1.29,,,
Arpc4,DRSC02917,-0.13,-0.04,,,
CG15390,DRSC00404,-0.03,0.15,,,
CG2121,DRSC06819,0.33,0.41,,,
CG2121,DRSC06820,0.42,0.37,,,
CG12307,DRSC02159,0.22,-0.12,,,
CG8419,DRSC03087,0.76,0.69,,,
Cadps,DRSC21057,0.56,0.05,,,
Cadps,DRSC22200,-0.43,-0.15,,,
js,DRSC15004,0.09,0.46,,,
CG15629,DRSC00464,0.28,0.31,,,
Or9a,DRSC18692,0.35,0.44,,,
Elba2,DRSC00731,0.37,0.51,,,
SuUR,DRSC11292,0.31,0.4,,,
Muc68Ca,DRSC10312,0.61,0.68,,,
Muc68Ca,DRSC10313,0.29,0.49,,,
Syn2,DRSC06902,0.31,0.26,,,
nvd,DRSC22139,-0.69,0.22,,,
CG9682,DRSC16536,0.22,0.39,,,
CG42327,DRSC14936,0.28,-0.15,,,
CG42327,DRSC14937,0.19,0.78,,,
lin-52,DRSC18106,0.34,0.57,,,
Mtr4,DRSC03560,-2.59,-1.21,,,reduced secretion
PH4alphaSG2,DRSC15037,0.2,0.22,,,
CG5515,DRSC15825,0.22,0.25,,,
EMC6,DRSC14386,-0.12,-0.12,,,
msb1l,DRSC03572,0.38,0.39,,,
AstC-R2,DRSC10051,0.38,0.46,,,
CG34129,DRSC15960,-0.01,0.11,,,
CG14246,DRSC14741,0.42,0.54,0.58,0.45,
CAH13,DRSC06128,0.22,0.15,,,
CG30178,DRSC21911,-0.19,-0.05,,,
CG15144,DRSC02445,0.49,0.51,,,
drpr,DRSC08143,0.38,0.2,,,
drpr,DRSC08525,0.31,0.24,,,
Ant2,DRSC19330,0.31,0.32,,,
CG32110,DRSC09220,0.18,0.19,,,
lva,DRSC18403,-0.17,0.12,,,
VhaM9.7-b,DRSC11841,0.28,0.48,,,
CG6503,DRSC16056,-0.37,-0.4,,,
RhoGAP102A,DRSC17110,0.35,0.15,,,
RhoGAP102A,DRSC17145,0.48,0.48,,,
CG10064,DRSC09689,0.21,0.33,,,
CG9467,DRSC16498,0.1,0.25,,,
INPP5E,DRSC09723,0.26,0.24,,,
Sirt2,DRSC15714,0.19,0.34,,,
CG7330,DRSC10813,0.2,0.44,,,
CG7330,DRSC10814,0.32,-0.81,,,
RpL29,DRSC04650,0.09,0.26,,,
CR10032,DRSC12499,0.24,0.52,,,
CG31103,DRSC22324,0.14,-0.25,,,
coil,DRSC07242,0.33,0.26,,,
Atg4b,DRSC15988,0.07,0.48,,,
CG17580,DRSC06683,0.52,0.49,,,
Kots,DRSC16581,0.24,0.09,,,
TwdlC,DRSC14749,0.35,0.56,,,
Ttc26,DRSC15591,0.76,0.27,,,
TwdlR,DRSC14736,0.52,0.38,,,
CG43307,DRSC00893,0.83,0.54,-0.12,-0.33,
CG34159,DRSC02885,0.91,0.28,,,
Arfip,DRSC15179,0.32,0.42,,,
HisT,DRSC05051,0.17,,,,
HisT,DRSC05052,0.13,,,,
HisT,DRSC06405,-0.77,-0.9,,,
su(w[a]),DRSC18840,0.15,0.12,,,
knon,DRSC07049,0.29,0.26,,,
Membrin,DRSC10448,-1.52,-0.71,,,reduced secretion
aru,DRSC00802,0.25,0.22,,,
aru,DRSC22019,-0.99,-0.38,,,
unc80,DRSC15329,0.35,0.62,,,
CG12662,DRSC17865,-0.77,-0.03,,,
CG11050,DRSC02125,-0.09,-0.05,,,
C901,DRSC19351,0.41,0.42,,,
Chc,DRSC20229,-0.09,-0.35,,,
scrib,DRSC13774,0.24,-0.42,,,
scrib,DRSC13775,-0.16,0.35,,,
scrib,DRSC15809,0.34,0.52,,,
scrib,DRSC17051,0.27,0.4,,,

Targets above whose gene name begins with P or p:
predicted target,dsRNA,"z-score, replicate 1","z-score, replicate 2","z-score, replicate 3","z-score, replicate 4","phenotype, replicate 1"
Pcl,DRSC07503,-0.73,-1.29,,,
PH4alphaSG2,DRSC15037,0.2,0.22,,,
